Test results: article PMC12077264
Numbering of substitutions follows the chain as printed. No constants are given. Whether binding was seen depends on the method and setting. In cells and extracts the contact can be indirect. Binding calls can cover weak binding; strength is not graded here. Where a sequence is shown, tags or fusion partners need not be part of it.

Protein sequences, listed by entry. Tags and fused reporters are not part of them. Lines headed by an entry give the natural chain unless they say otherwise; changes in a name come on top.
UniProt P69490: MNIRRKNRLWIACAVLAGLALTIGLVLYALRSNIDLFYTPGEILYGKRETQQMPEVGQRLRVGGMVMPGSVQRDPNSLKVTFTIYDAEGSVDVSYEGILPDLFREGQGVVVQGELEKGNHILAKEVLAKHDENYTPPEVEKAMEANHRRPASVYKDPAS

How the values were obtained:
Assay in all cases: pull-down; GST affinity purification via the N-terminal GST tag on CcmC of co-expressed GST:CcmCDE(H130A) or GST:CcmC(D:flag)E(H130A) from E. coli; 5 ug affinity purified protein on SDS-PAGE, Coomassie stain and α-GST, α-CcmE, α-FLAG immunoblots
[1] = biological target: T1, GST:CcmC(I70C), in GST:CcmCDE(H130A) (E. coli) (UniProt P0ABM1)
T1 sequence: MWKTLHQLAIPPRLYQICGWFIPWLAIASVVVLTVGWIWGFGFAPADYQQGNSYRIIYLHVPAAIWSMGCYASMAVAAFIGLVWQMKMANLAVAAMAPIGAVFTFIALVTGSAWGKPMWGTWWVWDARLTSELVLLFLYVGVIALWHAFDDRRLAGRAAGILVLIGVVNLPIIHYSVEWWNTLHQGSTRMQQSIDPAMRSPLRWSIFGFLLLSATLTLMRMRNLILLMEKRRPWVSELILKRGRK

[2] = biological target: T2, GST:CcmC(M68C), in GST:CcmCDE(H130A) (E. coli) (UniProt P0ABM1)
T2 sequence: T1 sequence with M68C, C70I

[3] = biological target: T3, GST:CcmC(L145C), in GST:CcmCDE(H130A) (E. coli) (UniProt P0ABM1)
T3 sequence: T1 sequence with C70I, L145C

[4] = biological target: T4, GST:CcmC(R152C), in GST:CcmCDE(H130A) (E. coli) (UniProt P0ABM1)
T4 sequence: T1 sequence with C70I, R152C

[5] = biological target: T5, GST:CcmC(H147C), in GST:CcmCDE(H130A) (E. coli) (UniProt P0ABM1)
T5 sequence: T1 sequence with C70I, H147C

[6] = biological target: T6, GST:CcmC(A97C), in GST:CcmCDE(H130A) (E. coli) (UniProt P0ABM1)
T6 sequence: T1 sequence with C70I, A97C

[7] = biological target: T7, GST:CcmC(N169C), in GST:CcmCDE(H130A) (E. coli) (UniProt P0ABM1)
T7 sequence: T1 sequence with C70I, N169C

Measured: binding

CcmE(H130A) (from UniProt P69490)
binds: [1] | [2] | [3] | [4] | [5] | [6] | [7]
